In assay [1] the target is T1, Sis1 (S. cerevisiae (endogenous in 74-D694 yeast)) (UniProt P25294).
T1 sequence: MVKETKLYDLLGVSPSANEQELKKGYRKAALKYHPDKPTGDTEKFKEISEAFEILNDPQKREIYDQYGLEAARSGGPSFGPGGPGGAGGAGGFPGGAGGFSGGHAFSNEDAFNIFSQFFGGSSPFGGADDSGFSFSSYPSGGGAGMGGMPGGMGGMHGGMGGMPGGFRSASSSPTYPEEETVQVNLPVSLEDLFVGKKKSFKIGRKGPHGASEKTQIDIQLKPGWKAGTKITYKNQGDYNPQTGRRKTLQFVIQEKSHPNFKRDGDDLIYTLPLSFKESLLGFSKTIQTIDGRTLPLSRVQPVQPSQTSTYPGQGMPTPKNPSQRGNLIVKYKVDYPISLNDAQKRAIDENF
In words: co-IP; Sis1 immunoprecipitated with αSis1 antibody and Protein G Sepharose from lysates of [rnq−] yeast cells; 50 mM Tris pH 8, 150 mM NaCl, 1 mM EDTA, 0.2% Triton X-100; 4°C; immunoblot with αRnq1 and αSis1. A general note: In western blotting, separated proteins are transferred to a membrane and probed.

For assay [2], the target named is T1, Sis1 (S. cerevisiae (endogenous in 74-D694 yeast)). In words: co-IP; Sis1 immunoprecipitated with αSis1 antibody and Protein G Sepharose from lysates of [RNQ+] yeast cells (s.d. low, s.d. medium, s.d. high, s.d. very high, m.d. high); 50 mM Tris pH 8, 150 mM NaCl, 1 mM EDTA, 0.2% Triton X-100; 4°C; immunoblot with αRnq1 and αSis1.
Assay [3] has as its target T2, Rnq1 (S. cerevisiae (endogenous in 74-D694 yeast)) (UniProt P25367).
T2 sequence: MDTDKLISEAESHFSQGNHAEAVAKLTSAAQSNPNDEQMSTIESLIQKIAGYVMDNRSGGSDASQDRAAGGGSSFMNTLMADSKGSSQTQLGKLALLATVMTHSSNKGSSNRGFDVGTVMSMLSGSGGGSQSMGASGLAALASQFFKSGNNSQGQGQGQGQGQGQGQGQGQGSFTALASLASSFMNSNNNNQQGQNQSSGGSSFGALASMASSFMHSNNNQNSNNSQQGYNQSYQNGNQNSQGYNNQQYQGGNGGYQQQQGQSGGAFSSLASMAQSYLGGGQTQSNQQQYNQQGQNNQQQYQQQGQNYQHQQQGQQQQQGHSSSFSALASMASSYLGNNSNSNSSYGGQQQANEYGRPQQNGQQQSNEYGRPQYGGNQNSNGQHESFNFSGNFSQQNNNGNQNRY
In words: well-trap assay (joining assay); [rnq−] yeast cells; construct induced 3 hrs in galactose; lysates in 2% SDS sample buffer at room temperature or 100°C, SDS-PAGE, blot with αRnq1.

Assay [4] addresses T2, Rnq1 (S. cerevisiae (endogenous in 74-D694 yeast)). In words: well-trap assay (joining assay); [RNQ+] yeast cells; construct induced 3 hrs in galactose; lysates in 2% SDS sample buffer at room temperature or 100°C, SDS-PAGE, blot with αRnq1; aggregated Rnq1 is retained in the wells when not boiled.

These are yes or no findings as the source states them, for the method shown. For some assays here: In cells and extracts the contact can be indirect. Some entries that bind do so weakly or less than the wild type. For some assays here: Where a sequence is shown, tags or fusion partners need not be part of it.

B1: Rnq1 (protein, UniProt P25367 1-405)
chain: MDTDKLISEAESHFSQGNHAEAVAKLTSAAQSNPNDEQMSTIESLIQKIAGYVMDNRSGGSDASQDRAAGGGSSFMNTLMADSKGSSQTQLGKLALLATVMTHSSNKGSSNRGFDVGTVMSMLSGSGGGSQSMGASGLAALASQFFKSGNNSQGQGQGQGQGQGQGQGQGQGSFTALASLASSFMNSNNNNQQGQNQSSGGSSFGALASMASSFMHSNNNQNSNNSQQGYNQSYQNGNQNSQGYNNQQYQGGNGGYQQQQGQSGGAFSSLASMAQSYLGGGQTQSNQQQYNQQGQNNQQQYQQQGQNYQHQQQGQQQQQGHSSSFSALASMASSYLGNNSNSNSSYGGQQQANEYGRPQQNGQQQSNEYGRPQYGGNQNSNGQHESFNFSGNFSQQNNNGNQNRY
B1: the binding entry is “no binding (condition: in [rnq−] cells)” in assay [1] and “binds” in assay [2].

B2: HA-Rnq1 (protein, UniProt P25367 1-405)
chain: MDTDKLISEAESHFSQGNHAEAVAKLTSAAQSNPNDEQMSTIESLIQKIAGYVMDNRSGGSDASQDRAAGGGSSFMNTLMADSKGSSQTQLGKLALLATVMTHSSNKGSSNRGFDVGTVMSMLSGSGGGSQSMGASGLAALASQFFKSGNNSQGQGQGQGQGQGQGQGQGQGSFTALASLASSFMNSNNNNQQGQNQSSGGSSFGALASMASSFMHSNNNQNSNNSQQGYNQSYQNGNQNSQGYNNQQYQGGNGGYQQQQGQSGGAFSSLASMAQSYLGGGQTQSNQQQYNQQGQNNQQQYQQQGQNYQHQQQGQQQQQGHSSSFSALASMASSYLGNNSNSNSSYGGQQQANEYGRPQQNGQQQSNEYGRPQYGGNQNSNGQHESFNFSGNFSQQNNNGNQNRY
Turning to B2, the binding entry was “no binding (condition: in [rnq−] cells)” in assay [3] and “binds” in assay [4].

B3: Rnq1(132-405) (domain or fragment, UniProt P25367 132-405)
chain: SMGASGLAALASQFFKSGNNSQGQGQGQGQGQGQGQGQGQGSFTALASLASSFMNSNNNNQQGQNQSSGGSSFGALASMASSFMHSNNNQNSNNSQQGYNQSYQNGNQNSQGYNNQQYQGGNGGYQQQQGQSGGAFSSLASMAQSYLGGGQTQSNQQQYNQQGQNNQQQYQQQGQNYQHQQQGQQQQQGHSSSFSALASMASSYLGNNSNSNSSYGGQQQANEYGRPQQNGQQQSNEYGRPQYGGNQNSNGQHESFNFSGNFSQQNNNGNQNRY
For the molecule B3, the binding result in assay [1] is “no binding (condition: in [rnq−] cells)”; in assay [2], “binds”.

B4: Rnq1-PFD (153-405) (domain or fragment, UniProt P25367 153-405)
chain: QGQGQGQGQGQGQGQGQGQGSFTALASLASSFMNSNNNNQQGQNQSSGGSSFGALASMASSFMHSNNNQNSNNSQQGYNQSYQNGNQNSQGYNNQQYQGGNGGYQQQQGQSGGAFSSLASMAQSYLGGGQTQSNQQQYNQQGQNNQQQYQQQGQNYQHQQQGQQQQQGHSSSFSALASMASSYLGNNSNSNSSYGGQQQANEYGRPQQNGQQQSNEYGRPQYGGNQNSNGQHESFNFSGNFSQQNNNGNQNRY
Take B4: the results for the binding entry in assay [3] and in assay [4] were “no binding (condition: in [rnq−] cells)” and “binds”, respectively.
